Measurements taken from US20220380484A1 (MONASH UNIVERSITY, published 2022).
These are yes or no findings as the source states them, for the method shown. A result given as binding can be weak or reduced; the word gives no strength.

How the values were obtained:
[1] = biological target: plasminogenR561A,S741A (human); test: SPR competition: 10 nM plasminogen with G05 at 0, 62.5, 125, 250 and 500 nM over immobilised streptokinase (competitor)
[2] = biological target: plasminogenR561A,S741A (human); test: SPR competition; 10 nM plasminogen R561A,S741A with G05 at 0 to 500 nM passed over immobilised streptokinase (the blocked partner) [6B]

B1: G05 antibody (scFv, V domains shown)
VH: AVTLDESGGGLQTPGRALSLVCKASGFTFSSYAMHWVRQAPGKGLEFVAGIDNIGSYTRYGAAVKGRVTISRDNGQSIVRLQLDNLRAEDTGTYYCAKSAYGGSCCGPAYIDAWGHGTEVIVSS
VL: QAALTQPSSVSANPGETVEITCSGGGRSSYYGWYQQKSPGSAPVTLIYDNTNRPSNIPSRFSGSKSGSTATLTITGVQGEDEAVYFCGSADSSTTGIFGAGTTLTVL
notes: Chicken antibody from an scFv library (VH and VL joined by a flexible linker); also called scFv fragment of G05
binding [1]: binds | binding [2]: binds
